The assay concerns the target N terminus of S1 (S1 1-61) (rice). In words: two-hybrid; WA1 and its truncations in pGADT7 (AD), C1 and S1 full-length or truncated in pGBKT7 (BD); yeast strain AH109; growth on SD-Trp/-Leu and SD-Trp/-Leu/-His/-Ade.

No constants are given. Whether binding was seen depends on the method and setting. Binding calls can cover weak binding; strength is not graded here.

Consider “WA1 (WD40 for Anthocyanin biosynthesis), full length (from UniProt Q3V826)”, for which the binding result is recorded as “binds”.
